Consider three compounds from patent publication US20230416228A1 (Forkhead Biotherapeutics, Inc., priority 2020, published 2023).

The chains behind the UniProt entries cited, without tags or fusion partners.
UniProt Q12778, whole entry T24A/S256A/S319A: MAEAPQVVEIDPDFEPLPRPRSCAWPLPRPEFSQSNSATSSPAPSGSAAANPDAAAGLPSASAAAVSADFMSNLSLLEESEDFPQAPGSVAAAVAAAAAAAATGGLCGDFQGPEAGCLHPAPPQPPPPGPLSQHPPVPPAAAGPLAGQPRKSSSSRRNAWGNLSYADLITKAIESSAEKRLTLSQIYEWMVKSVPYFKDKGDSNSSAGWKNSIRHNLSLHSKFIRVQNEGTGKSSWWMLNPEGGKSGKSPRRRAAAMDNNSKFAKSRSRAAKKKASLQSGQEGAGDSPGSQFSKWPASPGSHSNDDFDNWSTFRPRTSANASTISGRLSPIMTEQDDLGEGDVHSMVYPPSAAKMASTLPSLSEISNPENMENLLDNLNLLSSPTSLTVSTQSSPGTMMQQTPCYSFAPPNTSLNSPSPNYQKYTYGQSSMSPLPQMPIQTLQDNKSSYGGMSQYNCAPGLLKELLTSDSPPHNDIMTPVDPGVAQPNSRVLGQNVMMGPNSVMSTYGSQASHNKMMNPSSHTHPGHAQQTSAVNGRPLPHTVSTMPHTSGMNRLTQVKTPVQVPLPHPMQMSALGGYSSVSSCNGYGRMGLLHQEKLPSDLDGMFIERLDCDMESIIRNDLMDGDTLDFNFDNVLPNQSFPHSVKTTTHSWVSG

The target of this experiment is human FOXO1 (constitutively active form Thr24Ala, Ser256Ala, Ser319Ala) (Homo sapiens, UniProt Q12778, S256A/S319A/T24A). The experiment in a line: FOXO1 inhibitor activity assay: cell-based transcriptional (luciferase) reporter assay in HEK293 cells. To be noted: HEK293 cells transfected with insulin response element firefly luciferase reporter, FOXO1 and Renilla luciferase; 10-point dose response 50 μM to 2.5 nM; 24 hours. For orientation: A reporter such as luciferase makes a cellular process visible.

Each structure is given as a SMILES string. Structures were worked out from names or drawings and are uncertain. Bounds are passed on as bounds.

For orientation: IC50 means the concentration that gives 50% inhibition. `C[C@@H]1CN(c2ccc(C(=O)Nc3cc(-c4nc5cc(N6CCOCC6)ccc5[nH]4)n(C)n3)cn2)C[C@H](C)N1` displayed a half-inhibitory concentration (IC50) of less than 100 nM.
In turn, `COc1ccc(C(=O)Nc2cc(-c3nc4cc(N5CCOCC5)ccc4[nH]3)n(C)n2)cc1Cl` returned an IC50 of less than 100 nM.
Compound `COc1cc(F)c2[nH]c(-c3cc(NC(=O)c4ccc(N5CCN(C)CC5)nc4)n[nH]3)nc2c1` returned an IC50 greater than 1000 nM.
